According to patent publication EP1042468B1:
For at least one compound, name, drawing or mass did not settle the structure.

Tested on: human neuronal calcium channel α2 and β1 subunits
Assay: Two-electrode voltage clamp of oöcytes injected with α2 and β1 transcripts
Conditions: 5 to 10 µM, holding potential of -50 mV

COC(=O)C1=C(C)NC(C)=C(C(=O)OC)C1c1ccccc1[N+](=O)[O-] [nifedipine]
sensitivity of inward barium currents (in words): insensitive
